# Only a part is listed here, and it is no random draw. At the low end of the ranking the order means little.
# Biological target: SPI1 (UniProt P17947)
# Experiment: DAPPL (digital affinity profiling via proximity ligation, sequencing)
# Conditions: 10 mM Tris-HCl pH 7.5, 50 mM NaCl, 1 mM DTT, 4% glycerol, room temperature, 30 min; GST-TFs on glutathione beads, 16-mer random dsDNA library, 0.1% …; high values mean tight binding; double strand, one strand shown; scale: fold enrichment (6-mer frequency, TF over GST control)
row,Sequence,binding signal
1,CAGTAC,0.826
2,TTGGAC,0.964
3,CCAGGT,0.702
4,GTCAGA,0.71
5,TGTAGT,0.9
6,AGGTTA,0.726
7,AAACGT,0.894
8,AGAGCA,0.753
9,CCGTGA,0.191
10,GGGAAT,0.839
11,AAGCGT,0.863
12,GGCCAG,0.444
13,GACAGA,0.631
14,ACAGAC,0.793
15,GCCATG,0.797
16,GTGTAG,0.687
17,CGGCGC,0.609
18,CCGGAG,0.498
19,GGACGA,0.605
20,GTAGTA,0.875

# Some of the entries so far, tab-delimited:
row	Sequence	binding signal
1	CAGTAC	0.826
2	TTGGAC	0.964
3	CCAGGT	0.702

# Next part.

row,Sequence,binding signal
1,GGTAGG,0.545
2,ACGTGG,0.532
3,TCGTGC,0.756
4,CATCGG,0.675
5,AAAGGA,0.882
6,CAGCGT,0.82
7,GTGTGC,1.01
8,GGGTAA,0.819
9,GCGTGA,0.255
10,GTGCCA,0.884
11,TGACAG,0.982
12,GAGTGC,0.575
13,GGGTCT,0.937
14,CGTGCG,0.621
15,CAGCAA,0.912
16,AAAGAG,1.45
17,GGGGAT,0.666
18,CAGCGA,0.805
19,ACACGT,0.848
20,TCGGAG,0.191
